Two molecules from article PMC7788286 can be followed below.

Amino acid sequences for entries named in this document (tags omitted).
UniProt P35637: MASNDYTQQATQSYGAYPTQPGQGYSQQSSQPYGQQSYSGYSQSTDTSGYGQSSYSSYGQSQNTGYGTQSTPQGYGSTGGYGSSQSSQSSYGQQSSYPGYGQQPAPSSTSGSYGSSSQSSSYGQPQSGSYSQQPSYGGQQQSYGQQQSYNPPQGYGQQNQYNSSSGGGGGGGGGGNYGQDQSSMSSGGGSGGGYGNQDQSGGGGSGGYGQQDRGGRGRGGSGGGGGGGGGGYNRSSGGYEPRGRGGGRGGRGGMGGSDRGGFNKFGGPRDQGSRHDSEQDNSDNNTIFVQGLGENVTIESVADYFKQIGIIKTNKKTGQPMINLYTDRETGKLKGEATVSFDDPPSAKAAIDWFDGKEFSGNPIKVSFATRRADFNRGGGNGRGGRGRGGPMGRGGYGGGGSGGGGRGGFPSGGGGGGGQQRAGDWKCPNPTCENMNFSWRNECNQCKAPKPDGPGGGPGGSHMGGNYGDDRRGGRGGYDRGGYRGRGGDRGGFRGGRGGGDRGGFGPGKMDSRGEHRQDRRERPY

In test [1] the target is T1, ubiquitin-specific protease 15 (USP15) (human (endogenous in MV4-11 and Kasumi-1)) (UniProt Q9Y4E8).
T1 sequence: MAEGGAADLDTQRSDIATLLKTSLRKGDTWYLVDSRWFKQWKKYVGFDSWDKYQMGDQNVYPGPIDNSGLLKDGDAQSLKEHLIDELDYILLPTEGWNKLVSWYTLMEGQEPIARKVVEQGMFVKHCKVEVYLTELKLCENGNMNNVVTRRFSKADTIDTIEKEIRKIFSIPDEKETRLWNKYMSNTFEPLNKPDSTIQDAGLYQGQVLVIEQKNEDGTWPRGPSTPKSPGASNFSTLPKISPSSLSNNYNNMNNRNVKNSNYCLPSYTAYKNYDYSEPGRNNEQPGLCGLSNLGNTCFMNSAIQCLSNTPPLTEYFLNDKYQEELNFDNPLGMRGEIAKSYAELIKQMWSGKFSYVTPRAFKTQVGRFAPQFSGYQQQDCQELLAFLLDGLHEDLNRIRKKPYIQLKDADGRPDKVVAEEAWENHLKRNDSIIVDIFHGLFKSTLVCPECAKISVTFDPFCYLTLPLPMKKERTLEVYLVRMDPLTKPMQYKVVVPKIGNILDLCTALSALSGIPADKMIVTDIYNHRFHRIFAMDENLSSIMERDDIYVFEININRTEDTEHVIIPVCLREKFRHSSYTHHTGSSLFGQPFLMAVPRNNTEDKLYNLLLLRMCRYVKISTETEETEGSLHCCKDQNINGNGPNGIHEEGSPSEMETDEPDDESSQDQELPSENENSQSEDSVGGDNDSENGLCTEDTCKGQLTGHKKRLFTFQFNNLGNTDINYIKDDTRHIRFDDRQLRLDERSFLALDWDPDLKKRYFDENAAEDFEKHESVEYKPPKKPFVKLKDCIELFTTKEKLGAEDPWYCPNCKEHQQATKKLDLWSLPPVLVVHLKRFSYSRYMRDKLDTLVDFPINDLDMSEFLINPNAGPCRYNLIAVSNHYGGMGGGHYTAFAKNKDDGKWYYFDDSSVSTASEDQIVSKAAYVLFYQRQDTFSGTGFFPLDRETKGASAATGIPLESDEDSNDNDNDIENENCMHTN
In words: co-IP; endogenous USP15 or endogenous FUS immunoprecipitated (protein A Dynabeads, overnight 4°C) from 0.1% Igepal lysates (150 mM NaCl, 20 mM Tris pH 7.5, 0.5 mM EDTA) of MV4-11 and Kasumi-1 cells, untreated or MMC-treated; immunoblot; IgG control.

The target in test [2] is FUS (fused in sarcoma) (human (endogenous in MV4-11 and Kasumi-1)) (UniProt P35637). The test is described as above.

No constants are given. Whether binding was seen depends on the method and setting. In cells and extracts the contact can be indirect. Some entries that bind do so weakly or less than the wild type.

On to “FUS (fused in sarcoma) (from UniProt P35637 1-526)”, for which the binding result in test [1] is “binds”.

B1: ubiquitin-specific protease 15 (USP15) (enzyme, UniProt Q9Y4E8 1-981)
chain: T1 sequence
B1: the binding result in test [2] is “binds”.
